Results on 1 substance are retold here after PMC6779757.

Amino acid sequences for entries named in this document (tags omitted). A change or cut given only in a name is not applied to a line headed by its entry.
UniProt P09237: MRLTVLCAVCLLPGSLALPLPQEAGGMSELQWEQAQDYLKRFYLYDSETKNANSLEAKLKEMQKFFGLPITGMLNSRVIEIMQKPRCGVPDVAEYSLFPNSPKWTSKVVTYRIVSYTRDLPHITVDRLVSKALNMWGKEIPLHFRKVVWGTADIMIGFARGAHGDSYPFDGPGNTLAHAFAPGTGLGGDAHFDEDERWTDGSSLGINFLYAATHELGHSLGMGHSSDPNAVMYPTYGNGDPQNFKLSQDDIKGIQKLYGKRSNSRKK

Experiment [1] has as its target T1, Golgi phosphoprotein 73 (GP73) (human) (UniProt Q8NBJ4).
T1 sequence: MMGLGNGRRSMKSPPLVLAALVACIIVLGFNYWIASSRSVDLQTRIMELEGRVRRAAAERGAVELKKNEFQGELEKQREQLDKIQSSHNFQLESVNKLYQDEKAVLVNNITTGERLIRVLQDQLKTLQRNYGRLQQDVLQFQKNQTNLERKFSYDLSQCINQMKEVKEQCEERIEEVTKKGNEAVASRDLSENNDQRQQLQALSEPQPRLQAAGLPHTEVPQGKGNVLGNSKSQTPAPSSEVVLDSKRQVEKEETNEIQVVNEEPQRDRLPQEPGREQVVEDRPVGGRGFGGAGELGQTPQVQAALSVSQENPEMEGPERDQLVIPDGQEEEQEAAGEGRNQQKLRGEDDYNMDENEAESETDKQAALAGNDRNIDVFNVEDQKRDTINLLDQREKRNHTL
Briefly: co-IP; lysates (RIPA buffer) of HepG2 and MHCC-97H cells after GP73 mediation; anti-GP73 mAb or normal rabbit IgG with magnetic beads, 4 °C overnight; MMP-7 detected by immunoblot. Background: In western blotting, separated proteins are transferred to a membrane and probed.

For experiment [2], the target named is T2, full-length GP73, FLAG-tagged (pCMV-c-FLAG) (human) (UniProt Q8NBJ4).
T2 sequence: T1 sequence
Put plainly: co-IP; 293 T cells transfected with pCMV-c-FLAG GP73 constructs, 48 h; RIPA lysate; precipitated with rabbit anti-FLAG pAb, blotted with the indicated antibodies.

Results are given in words; binding and its absence hold for the method and conditions named. In cells and extracts the contact can be indirect. A result given as binding can be weak or reduced; the word gives no strength. For some assays here: Where a sequence is shown, tags or fusion partners need not be part of it.

Consider “matrix metalloproteinase-7 (MMP-7) (from UniProt P09237)”, for which the binding entry in experiment [1] and in experiment [2] was “binds” each time.
